Experimental findings from article PMC9307837 are described below.

Protein sequences, listed by entry. Tags and fused reporters are not part of them.
UniProt O88444: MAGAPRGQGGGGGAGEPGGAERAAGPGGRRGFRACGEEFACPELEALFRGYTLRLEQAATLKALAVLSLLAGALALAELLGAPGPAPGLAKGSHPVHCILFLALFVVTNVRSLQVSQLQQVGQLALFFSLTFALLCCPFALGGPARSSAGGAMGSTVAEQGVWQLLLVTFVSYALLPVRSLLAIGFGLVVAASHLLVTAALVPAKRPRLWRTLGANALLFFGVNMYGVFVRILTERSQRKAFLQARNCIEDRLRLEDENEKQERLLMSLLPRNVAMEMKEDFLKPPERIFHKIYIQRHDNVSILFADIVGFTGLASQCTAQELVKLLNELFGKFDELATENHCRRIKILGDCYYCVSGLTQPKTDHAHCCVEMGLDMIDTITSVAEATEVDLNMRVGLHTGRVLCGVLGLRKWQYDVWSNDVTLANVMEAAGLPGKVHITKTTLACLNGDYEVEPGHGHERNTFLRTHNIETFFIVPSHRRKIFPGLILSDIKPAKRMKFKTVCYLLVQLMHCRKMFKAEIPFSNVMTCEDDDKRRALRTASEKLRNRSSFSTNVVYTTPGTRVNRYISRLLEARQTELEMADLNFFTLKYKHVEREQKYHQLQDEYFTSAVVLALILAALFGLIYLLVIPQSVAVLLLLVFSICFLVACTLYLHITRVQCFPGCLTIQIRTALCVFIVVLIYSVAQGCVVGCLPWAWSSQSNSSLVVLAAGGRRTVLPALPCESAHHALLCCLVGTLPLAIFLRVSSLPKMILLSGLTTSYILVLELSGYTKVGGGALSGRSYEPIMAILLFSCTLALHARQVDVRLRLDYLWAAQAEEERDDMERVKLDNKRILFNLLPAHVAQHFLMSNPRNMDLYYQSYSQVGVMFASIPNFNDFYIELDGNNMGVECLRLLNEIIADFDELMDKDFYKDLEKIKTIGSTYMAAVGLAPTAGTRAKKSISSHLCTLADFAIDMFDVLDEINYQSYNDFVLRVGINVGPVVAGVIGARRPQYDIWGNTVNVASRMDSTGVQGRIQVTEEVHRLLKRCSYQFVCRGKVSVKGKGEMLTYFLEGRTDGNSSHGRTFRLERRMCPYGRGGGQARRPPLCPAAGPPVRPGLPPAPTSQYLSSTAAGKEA

These are yes or no findings as the source states them, for the method shown. In cells and extracts the contact can be indirect. Some entries that bind do so weakly or less than the wild type.

The test deals with T1, Calcium/calmodulin-dependent protein kinase IV (CaMK4), mouse (mouse (endogenous in RAW264.7 and BMDMs)) (UniProt P08414).
T1 sequence: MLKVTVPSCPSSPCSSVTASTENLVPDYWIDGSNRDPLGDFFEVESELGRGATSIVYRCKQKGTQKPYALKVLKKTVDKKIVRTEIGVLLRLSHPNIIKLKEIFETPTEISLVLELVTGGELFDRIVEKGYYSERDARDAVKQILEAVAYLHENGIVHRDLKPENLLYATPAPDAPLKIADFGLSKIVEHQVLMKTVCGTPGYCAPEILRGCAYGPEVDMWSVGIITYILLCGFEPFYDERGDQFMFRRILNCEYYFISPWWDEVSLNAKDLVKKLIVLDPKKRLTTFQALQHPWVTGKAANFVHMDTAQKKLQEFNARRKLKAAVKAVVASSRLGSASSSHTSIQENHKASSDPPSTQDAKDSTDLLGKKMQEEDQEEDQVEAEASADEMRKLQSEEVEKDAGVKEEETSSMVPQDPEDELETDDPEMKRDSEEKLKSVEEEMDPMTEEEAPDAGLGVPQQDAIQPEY
Briefly: co-IP; mouse BMDMs; forward and reverse co-IP, western blot.

As to “adenylyl cyclase 1 (ADCY1), mouse (from UniProt O88444 1-1118) (enzyme)”, the binding result is “binds”.
